Our source for the binding values is patent publication US20260265351A1.

The target of the experiment is biotinylated 1a157 E2 (hepatitis C virus). The experiment can be described thus: BLI E2-binding competition.

No constants are given. Whether binding was seen depends on the method and setting. Binding calls can cover weak binding; strength is not graded here.

B1: hcab05 (antibody, V domains shown)
VH: QVQLQESGSGLVRPSQTLSLTCTVSGGSISSDAYSWNWIRQPPGKGLEWIGHIYHSGRTSHNPSLNSRVTISVDRSKNQFSLRLTSVTAADTAVYYCAREAQDYRGYRFDSWGQGTLVTVSS
VL: DIQMTQSPSSLSASVGDRVTITCRASQYISDYLNWYQQKPGKAPNLLIYAASSLQSGVPSRFSGSGSGTDFTLTISSLQPEDFATYYCQQSYGTPPWTFGQGTKVEFK
Consider B1, for which the binding entry is on record as “binds”.
